Results as given in PubChem BioAssay AID2685 (National Center for Advancing Translational Sciences (NCATS), 2010).
This is one part of the list. These are further read-outs of the screen, such as a control signal, another cell line or another target. No call is given for them. Most of these compounds were active or inconclusive in the main read-out, so they are no random draw. The note in brackets gives the kind of curve behind each potency; many fits are weak.

Experiment: qHTS Assay for Lipid Storage Modulators in Drosophila S3 Cells;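 on cell number change: cells counted by Cell Tracker Red CMTPX staining in the red channel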
Conditions: BODIPY lipid droplet fluorescence, 18-24 h; for cell number change: measured here: cell count max response, cells fed with added oleic acid
Procedure, shortened: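 Drosophila S3 cells loaded with oleic acid (400 uM, as added) and compounds at several concentrations; lipid droplets imaged by 488-nm laser-scanning cytometry, 500–530 nm intensity and object ratio to cell channel. Percent activity normalized to 20 uM Triacsin C.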

[1] = measured here: cell number channel AC50, cells fed with added oleic acid
[2] = measured here: lipid fluorescence (Fed channel) AC50, cells fed with added oleic acid

| Compound | AC50 [1] | cell number change | AC50 [2] |
| --- | --- | --- | --- |
| COC(=O)CCP(=O)(O)Cc1ccccc1CP(=O)(O)CCC(=O)OC | 6.51 µM [falling, partial curve, poor fit] |  |  |
| N#Cc1ccccc1NC(=O)CN1CC=C(c2ccccc2)CC1 | 32.6 µM [rising, single point] | 40.2% |  |
| Cc1cc(OCCN2CC2)c2ccccc2n1 | 3.26 µM [rising, partial curve] |  |  |
| CC(=O)OC1N=C(c2ccc(Cl)cc2)c2cc(Br)ccc2NC1=O (configuration not stated) | 29.1 µM [falling, single point] | -34.6% | 29.1 µM [falling, single point] |
| Cn1cc2c([N+](=O)[O-])cc([N+](=O)[O-])cc2n1 |  | 21.4% |  |
| CC(=O)Nc1ccccc1C(=O)OCc1ccccc1F | 4.11 µM [falling, single point] | -4.33% | 4.11 µM [falling, partial curve, poor fit] |
| O=C(Cn1c2c(c(-c3ccccc3Cl)cc1=O)CCC2)N1CCC2(CC1)OCCO2 |  |  | 3.66 µM [falling, single point] |
| O=C(CN1C(=O)CCSc2ccccc21)N1CCC2(CC1)OCCO2 | 4.11 µM [falling, full curve] | -42.5% |  |
| OC(CNCCc1c[nH]c2ccccc12)c1ccccc1 (configuration not stated) |  | 25.8% |  |
| COc1ccc(OCC(=O)N2CCN(Cc3ccc4c(c3)OCO4)CC2)cc1 |  | 10.3% | 0.00461 µM [rising, full curve, poor fit] |
| CC1(C)C2([N+](=O)[O-])CN3CC1([N+](=O)[O-])CN(C2)C3c1ccccn1 (configuration not stated) |  | 3.04% |  |
| CCOP(=O)(c1ccc(N(C)C)cc1)C(O)c1ccccc1 (configuration not stated) | 0.0326 µM [falling, partial curve] |  |  |
| O=C(CCc1ccc(O)cc1)N1C[C@H]2C[C@@H](C1)c1cccc(=O)n1C2 |  | 4.21% | 6.51 µM [rising, single point] |
| Cc1cccn2c(=O)c3c(nc12)N1CCCCCC1C1(C3)C(=O)N(C)C(=O)N(C)C1=O (configuration not stated) | 18.4 µM [rising, partial curve, poor fit] | 34% |  |
| CCCCn1c(O)c(C(CC)=NCCCN(C)C)c(=O)[nH]c1=O |  | -6.54% |  |
| O=c1c2ccccc2nc(/C=C/c2ccc(O)cc2)n1-c1ccccc1O |  | 24.4% | 0.82 µM [rising, full curve, poor fit] |
| CC12CC[C@H]3[C@@H](CCC4(O)C[C@H](O)CCC34/C=N/NC(=O)c3ccccc3F)C1(O)CCC2C1=CC(=O)OC1 (some centres not stated) | 0.82 µM [falling, full curve, poor fit] | -25.1% | 13 µM [falling, partial curve] |
| CSc1ccc(C(=O)C2CCCN(Cc3cc4ccccc4[nH]3)C2)cc1 (configuration not stated) | 20.6 µM [falling, single point] | -57.2% | 23.1 µM [falling, single point] |
| CN1C(=O)N(C)C(=O)C(CCc2ccncc2)(CCc2ccncc2)C1=O |  | 13.7% | 6.51 µM [rising, single point] |
| CC(=O)CCC(C)=O | 0.082 µM [falling, full curve, poor fit] | -25.2% | 0.103 µM [rising, full curve, poor fit] |
| Cc1nc2cc(C(F)(F)F)ccc2n1C1CCN(Cc2nnnn2CCc2ccccc2)CC1 | 29.1 µM [falling, single point] | -47.7% | 29.1 µM [falling, single point] |
| O=C1/C(=C/c2cc3c(cc2Cl)OCO3)N2CCC1CC2 |  | -11.5% | 0.092 µM [rising, full curve, poor fit] |
| Cc1cc(C)n2nc(SC(C)C(=O)N3CCC4(CC3)OCCO4)nc2n1 (configuration not stated) |  | -4.33% | 0.082 µM [rising, full curve, poor fit] |
| O=c1[nH]c(O)c(N=Nc2cc(C(F)(F)F)ccc2Cl)c(=O)[nH]1 |  | 21.7% | 29.1 µM [rising, single point] |
| CP(=O)(O)CCCN | 29.1 µM [falling, single point] | -52.1% | 5.17 µM [falling, partial curve] |
| O=C1NC(=O)N(Cc2ccco2)C(=O)/C1=C\c1cccn1CCOc1ccc(Cl)cc1 |  | -12.5% | 11.6 µM [falling, partial curve] |
| CCOC(=O)c1ccc(-[n+]2c(-c3ccccc3)cc(-c3ccccc3)cc2-c2ccccc2)cc1 |  | -9.57% | 6.51 µM [falling, single point] |
| CC[N+](CC)(CC)CCCCCCCCCC[N+](CC)(CC)CC |  | 9.25% | 6.51 µM [falling, single point] |

Reprinted at random: four entries already listed, in no set order.

| Compound | AC50 [1] | cell number change | AC50 [2] |
| --- | --- | --- | --- |
| O=C(CN1C(=O)CCSc2ccccc21)N1CCC2(CC1)OCCO2 | 4.11 µM [falling, full curve] | -42.5% |  |
| CCOC(=O)c1ccc(-[n+]2c(-c3ccccc3)cc(-c3ccccc3)cc2-c2ccccc2)cc1 |  | -9.57% | 6.51 µM [falling, single point] |
| O=c1c2ccccc2nc(/C=C/c2ccc(O)cc2)n1-c1ccccc1O |  | 24.4% | 0.82 µM [rising, full curve, poor fit] |
| CC(=O)OC1N=C(c2ccc(Cl)cc2)c2cc(Br)ccc2NC1=O (configuration not stated) | 29.1 µM [falling, single point] | -34.6% | 29.1 µM [falling, single point] |

Continuation:

| Compound | AC50 [1] | cell number change | AC50 [2] |
| --- | --- | --- | --- |
| COc1ccccc1-n1c(O)c(/C=N/N2CCCCC2)c(=O)n(-c2ccccc2OC)c1=S |  | 11.3% |  |
| CCOP(=O)(Cc1ccc(C#N)o1)OCC |  | -24.9% | 4.61 µM [rising, partial curve] |
| COc1ccc(C2C(C(=O)N3CCC4(CC3)OCCO4)c3cc(OC)c(OC)cc3C(=O)N2C)cc1 (configuration not stated) |  |  | 0.82 µM [falling, full curve, poor fit] |
| O=C1C=Cc2ccccc2C1=O |  | -1.57% | 25.9 µM [falling, single point] |
| CC(N)C(=O)OC(C)(C)Cc1ccc(Cl)cc1 (configuration not stated) | 0.651 µM [rising, partial curve] | 42.4% | 4.11 µM [rising, partial curve] |
| c1ccc(-c2ccc(-c3n(-c4ccccn4)c4ccccc4[n+]3-c3ccccn3)cc2)cc1 | 29.1 µM [falling, single point] | -62.3% | 29.1 µM [falling, single point] |
| CCC(=O)c1cn(Cc2ccc(C#N)cc2)c2ccccc12 |  | 14.9% | 6.51 µM [rising, single point] |
| CNCC(O)c1cccc(OC(=O)c2ccccc2C)c1 (configuration not stated) |  | 13.1% | 5.17 µM [falling, single point] |
| COC(=O)C1=C(c2ccc(F)cc2OCc2ccccc2)C[C@@H]2CC[C@H]1N2C(=O)NCc1cccc(C(F)(F)F)c1 |  | -20.9% |  |
| Cc1nn(Cc2ccccc2Cl)c(Cl)c1C(=O)OCC(=O)NC(=O)NC1CCCCC1 | 9.2 µM [rising, partial curve] | 30.6% | 14.6 µM [rising, partial curve, poor fit] |
| C=CCn1c(O)c(C(CC)=Nc2cc(OC)ccc2OC)c(=O)[nH]c1=O |  | -6% | 0.116 µM [rising, full curve, poor fit] |
| O=C(CN1CCCC1=O)Nc1ccccc1 | 0.731 µM [falling, single point] | -8.06% | 10.3 µM [falling, partial curve] |
| C/C(=N/OC(=O)N(C)C)c1ncc(C(F)(F)F)cc1N1CCOCC1 | 32.6 µM [rising, partial curve, poor fit] | 71.1% | 25.9 µM [rising, partial curve] |
| Fc1ccc2c(c1)nnn2C1CCN(Cc2nnnn2CCc2ccccc2)CC1 |  | -15.6% | 1.3 µM [rising, partial curve] |
| CC(C)c1ccc(-n2c(O)c(/C=N/NC(=O)c3ccncc3)c(=O)[nH]c2=O)cc1 | 16.4 µM [falling, single point] | -31% |  |
| Cc1ccc(-c2cc(-c3ccccc3)cc(-c3ccccc3)[n+]2-c2ccc(C(=O)O)cc2)cc1 |  | -16.4% | 5.17 µM [rising, partial curve] |
| CSCCC(N=Cc1c(O)n(-c2ccc(F)cc2)c(=O)[nH]c1=O)C(=O)OC(C)(C)C (configuration not stated) | 29.1 µM [falling, single point] | -55.1% |  |
| COc1cc(OC)c(OC)cc1CN1CCN(C(=O)COc2ccc3ccccc3c2)CC1 |  | -1.59% | 29.1 µM [rising, single point] |
| O=[N+]([O-])c1cc(S(=O)(=O)c2ccc(O)c([N+](=O)[O-])c2)ccc1O |  | -0.784% | 1.64 µM [falling, partial curve] |
| N/C(=N/[N+](=O)[O-])N1CCN(C(=O)c2ccc(Cl)cc2)CC1 | 0.731 µM [rising, partial curve, poor fit] | -7.06% | 0.651 µM [rising, partial curve, poor fit] |
| O=C(O)CC1OCC=C2CN3CCC45c6ccccc6NC4C1C2CC35 (configuration not stated) |  | 19.9% | 2.31 µM [rising, full curve] |
| CC#CP(=O)(OC)C(O)(CF)c1ccccc1 (configuration not stated) |  | -7% | 0.0058 µM [falling, full curve, poor fit] |
| CCCCCCNc1nc(OC)nc(N2CC3CC(C2)c2cccc(=O)n2C3)n1 (configuration not stated) |  | -9.23% | 18.4 µM [rising, single point] |
| COC(=O)Cn1cc(C=C2C(=O)N(C)C(=O)N(C)C2=O)c2ccccc21 |  | 19.2% | 1.03 µM [rising, full curve, poor fit] |
| COc1cccc(NC(=O)[C@@H](NC(=O)N2C[C@H]3C[C@@H](C2)c2cccc(=O)n2C3)C(C)C)c1 |  | -15.6% | 2.59 µM [falling, full curve, poor fit] |
| CC/C=C/CC(=O)N[C@@H](c1ccccc1)[C@@H](O)C(=O)O[C@H]1C[C@@]2(O)[C@@H](OC(=O)c3ccccc3)C3[C@](C)(C(=O)[C@H](OC(C)=O)C(=C1C)C2(C)C)[C@@H](O)C[C@H]1OC[C@@]31OC(C)=O (some centres not stated) |  | -0.0872% | 3.26 µM [falling, single point] |
| O=C1NC(=O)N(Cc2ccco2)C(=O)/C1=C/C=C/c1ccco1 | 20.6 µM [falling, single point] | -36% |  |
